Record: PubChem BioAssay AID1259254 (NCATS, 2017)

- Test: 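Gene knock-downs that lead to re-replication, shown by excess G2 DNA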 (primary screen)
- Cells: human HCT116 colorectal cancer cells
- Knock-down reagent: single siRNA against human genes
- Time to read-out: 3 days
- Read-out: 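Imaged Hoechst DNA stain sorts each cell into a cycle phase by DNA amount; per plate, G2 fraction set to 0% for non-targeting and 100% for GMNN siRNA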
- Direction: G2 robust z-score: higher = more G2 cells, more excess DNA replication
- Hit rule: 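An siRNA counts as active if its G2 robust z-score lies at least 5 MADs above the screen median; here such calls match roughly 38% of GMNN control or more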
The whole screen tested about 59,000 reagents; below is a part drawn at random. In the full data, about 1,550 (2.6%) are marked active. 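G2 share is only a proxy for re-replication; each gene was hit by three separate siRNAs, and active genes were retested.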 The numbers tell different reagents against one gene apart. Further read-outs or replicates are left out here. Not given: the amount of reagent.

For TWF1 (twinfilin actin binding protein 1) #1, the values are G2 robust z-score -1.09; inactive.
Knock-down of TWF1 (twinfilin actin binding protein 1) #2 resulted in: G2 robust z-score -0.721; inactive.
For TWF1 (twinfilin actin binding protein 1) #3 the deposit lists G2 robust z-score 0.7; inactive.
For STOM (stomatin) #1, the entry reads G2 robust z-score 0.131; inactive.
With knock-down of STOM (stomatin) #2, the record shows G2 robust z-score -0.413; inactive.
Knock-down of STOM (stomatin) #3 came out at: G2 robust z-score -1.1; inactive.
FAM27E5 (family with sequence similarity E5) #1 scored G2 robust z-score 0.538; inactive.
After knock-down of FAM27E5 (family with sequence similarity E5) #2, the screen gave G2 robust z-score -0.0759; inactive.
For FAM27E5 (family with sequence similarity E5) #3, the values are G2 robust z-score 0.49; inactive.
Against MCCD1 (mitochondrial coiled-coil domain 1) #1 the deposit lists G2 robust z-score -0.262; inactive.
Depletion of MCCD1 (mitochondrial coiled-coil domain 1) #2 resulted in: G2 robust z-score -0.0357; inactive.
After knock-down of MCCD1 (mitochondrial coiled-coil domain 1) #3, the screen gave G2 robust z-score 0.268; inactive.
RHOB (ras homolog family member B) #1 scored G2 robust z-score 0.556; inactive.
RHOB (ras homolog family member B) #2 gave G2 robust z-score 3.49; inactive.
Knock-down of RHOB (ras homolog family member B) #3 gave: G2 robust z-score 0.588; inactive.
GUSBP5 (GUSB pseudogene 5) #1 gave G2 robust z-score 1.78; inactive.
Silencing of GUSBP5 (GUSB pseudogene 5) #2 came out at: G2 robust z-score -0.642; inactive.
After knock-down of GUSBP5 (GUSB pseudogene 5) #3 the results were G2 robust z-score 0.271; inactive.

Ordered by “G2 robust z-score” (low to high): some entries from above.
TWF1 (twinfilin actin binding protein 1) #2 | G2 robust z-score: -0.721; Call: inactive
TWF1 (twinfilin actin binding protein 1) #3 | G2 robust z-score: 0.7; Call: inactive
